These are yes or no findings as the source states them, for the method shown.
How the values were obtained:
[1] = target: human TAS1R3 Venus flytrap domain (TAS1R3-VFT) (human) (UniProt Q7RTX0); assay: SEC; Superdex 200 10/300GL, 50 mM Tris-HCl pH 8.0, 150 mM NaCl, 0.1 mM DDM, 0.5 mL/min; column calibrated with molecular mass markers; apparent masses; both purified
[2] = target: human TAS1R3 Venus flytrap domain (TAS1R3-VFT) (human) (UniProt Q7RTX0); assay: SEC-MALS; Shodex KW803 column, 50 mM Tris-HCl pH 8.0, 150 mM NaCl, 0.1 mM DDM; 100 uL of the gel filtration-purified fraction at 1.2 mg/mL, 0.5 mL/min; both purified
[3] = target: human TAS1R1 Venus flytrap domain (TAS1R1-VFT) (human) (UniProt Q7RTX1); assay: SEC; Superdex 200 10/300GL, 50 mM Tris-HCl pH 8.0, 150 mM NaCl, 0.1 mM DDM, 0.5 mL/min; column calibrated with molecular mass markers; apparent masses; both purified
[4] = target: human TAS1R1 Venus flytrap domain (TAS1R1-VFT) (human) (UniProt Q7RTX1); assay: SEC-MALS; Shodex KW803 column, 50 mM Tris-HCl pH 8.0, 150 mM NaCl, 0.1 mM DDM; 100 uL of the gel filtration-purified fraction at 1.2 mg/mL, 0.5 mL/min; both purified

binding [1] | binding [2] | binding [3] | binding [4] | Binder
no binding | no binding (tested: 1.2 mg/mL) |  |  | human TAS1R3 Venus flytrap domain (TAS1R3-VFT) (domain or fragment, UniProt Q7RTX0 21-497) APLCLSQQLRMKGDYVLGGLFPLGEAEEAGLRSRTRPSSPVCTRFSSNGLLWALAMKMAVEEINNKSDLLPGLRLGYDLFDTCSEPVVAMKPSLMFLAKAGSRDIAAYCNYTQYQPRVLAVIGPHSSELAMVTGKFFSFFLMPQVSYGASMELLSARETFPSFFRTVPSDRVQLTAAAELLQEFGWNWVAALGSDDEYGRQGLSIFSALAAARGICIAHEGLVPLPRADDSRLGKVQDVLHQVNQSSVQVVLLFASVHAAHALFNYSISSRLSPKVWVASEAWLTSDLVMGLPGMAQMGTVLGFLQRGAQLHEFPQYVKTHLALATDPAFCSALGEREQGLEEDVVGQRCPQCDCITLQNVSAGLNHHQTFSVYAAVYSVAQALHNTLQCNASGCPAQDPVKPWQLLENMYNLTFHVGGLPLRFDSSGNVDMEYDLKLWVWQGSVPRLHDVGRFNGSLRTERLKIRWHTSDNQKPVS
 |  | no binding | no binding (tested: 1.2 mg/mL) | human TAS1R1 Venus flytrap domain (TAS1R1-VFT) (domain or fragment, UniProt Q7RTX1-1 21-495) FACHSTESSPDFTLPGDYLLAGLFPLHSGCLQVRHRPEVTLCDRSCSFNEHGYHLFQAMRLGVEEINNSTALLPNITLGYQLYDVCSDSANVYATLRVLSLPGQHHIELQGDLLHYSPTVLAVIGPDSTNRAATTAALLSPFLVPMISYAASSETLSVKRQYPSFLRTIPNDKYQVETMVLLLQKFGWTWISLVGSSDDYGQLGVQALENQATGQGICIAFKDIMPFSAQVGDERMQCLMRHLAQAGATVVVVFSSRQLARVFFESVVLTNLTGKVWVASEAWALSRHITGVPGIQRIGMVLGVAIQKRAVPGLKAFEEAYARADKKAPRPCHKGSWCSSNQLCRECQAFMAHTMPKLKAFSMSSAYNAYRAVYAVAHGLHQLLGCASGACSRGRVYPWQLLEQIHKVHFLLHKDTVAFNDNRDPLSSYNIIAWDWNGPKWTFTVLGSSTWSPVQLNINETKIQWHGKDNQVPKS
